Among the data in publication PMC2824829 are binding values, retold here.

Sequences of proteins named here, by UniProt entry; tags and fusion partners are left off. A change or cut given only in a name is not applied to a line headed by its entry. A line that says so, or that is headed by a name, gives the form on record, which may keep a tag or linker.
UniProt Q99LI8: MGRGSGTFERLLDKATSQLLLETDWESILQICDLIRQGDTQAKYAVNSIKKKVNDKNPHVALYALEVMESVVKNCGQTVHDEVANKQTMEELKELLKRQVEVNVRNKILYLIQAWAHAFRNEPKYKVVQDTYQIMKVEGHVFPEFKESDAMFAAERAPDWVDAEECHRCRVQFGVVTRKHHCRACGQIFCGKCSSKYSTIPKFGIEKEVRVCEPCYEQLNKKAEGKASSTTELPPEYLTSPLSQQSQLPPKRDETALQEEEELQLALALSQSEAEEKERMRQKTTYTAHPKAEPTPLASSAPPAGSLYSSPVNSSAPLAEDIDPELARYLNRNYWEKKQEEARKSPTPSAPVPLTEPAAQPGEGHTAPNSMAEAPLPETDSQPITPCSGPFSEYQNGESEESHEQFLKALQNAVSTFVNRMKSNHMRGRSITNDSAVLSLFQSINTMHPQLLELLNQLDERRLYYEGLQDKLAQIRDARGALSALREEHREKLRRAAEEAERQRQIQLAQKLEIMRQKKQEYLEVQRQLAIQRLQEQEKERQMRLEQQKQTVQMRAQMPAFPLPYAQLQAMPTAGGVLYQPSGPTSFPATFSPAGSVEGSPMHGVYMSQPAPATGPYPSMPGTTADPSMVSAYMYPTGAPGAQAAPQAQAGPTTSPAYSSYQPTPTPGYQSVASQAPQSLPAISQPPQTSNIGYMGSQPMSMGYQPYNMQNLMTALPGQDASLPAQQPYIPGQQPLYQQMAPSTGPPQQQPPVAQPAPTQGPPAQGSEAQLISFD
Myc-tagged mouse HRS missing the coiled-coil domain (Myc-HRS-ΔCC) (Q99LI8, form named): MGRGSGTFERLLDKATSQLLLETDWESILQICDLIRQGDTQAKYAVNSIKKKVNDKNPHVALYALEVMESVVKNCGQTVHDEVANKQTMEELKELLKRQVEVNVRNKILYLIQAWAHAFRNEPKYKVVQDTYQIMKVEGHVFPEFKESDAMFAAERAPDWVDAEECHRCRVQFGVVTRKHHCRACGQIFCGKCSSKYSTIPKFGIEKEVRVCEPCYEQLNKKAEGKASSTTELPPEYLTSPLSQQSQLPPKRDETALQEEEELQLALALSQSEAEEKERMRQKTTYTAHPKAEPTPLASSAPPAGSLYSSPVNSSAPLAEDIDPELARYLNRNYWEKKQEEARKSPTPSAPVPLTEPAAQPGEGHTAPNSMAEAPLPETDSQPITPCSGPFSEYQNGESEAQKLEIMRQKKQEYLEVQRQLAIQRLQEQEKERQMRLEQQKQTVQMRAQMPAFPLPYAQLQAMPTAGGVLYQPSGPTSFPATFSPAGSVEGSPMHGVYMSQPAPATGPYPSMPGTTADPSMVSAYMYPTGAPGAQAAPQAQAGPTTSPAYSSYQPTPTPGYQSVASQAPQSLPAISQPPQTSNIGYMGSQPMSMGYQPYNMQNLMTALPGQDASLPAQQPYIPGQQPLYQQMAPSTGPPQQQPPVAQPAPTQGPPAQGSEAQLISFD

Test [1] has as its target Myc-tagged mouse HRS (Myc-HRS) (mouse) (UniProt Q99LI8). As to the kind of experiment: co-IP; Myc-HRS, Myc-HRS-ΔCC or GFP co-expressed with DYS-HA in HEK293 cells; DYS-HA detected in the immunoprecipitates from cell lysates.
The target in test [2] is Myc-tagged mouse HRS missing the coiled-coil domain (Myc-HRS-ΔCC) (mouse) (UniProt Q99LI8). Described as above.
In test [3] the target is T1, GFP-tagged PDZ domain of mouse alpha-1 syntrophin (GFP-PDZ) (mouse) (UniProt Q61234).
T1 sequence: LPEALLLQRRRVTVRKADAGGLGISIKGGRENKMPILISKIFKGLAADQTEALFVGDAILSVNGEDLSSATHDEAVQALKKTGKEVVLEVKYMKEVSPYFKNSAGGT
As to the kind of experiment: co-IP; GFP-tagged proteins co-expressed with DYS-HA in HEK293 cells; DYS-HA detected in the immunoprecipitates of the GFP-tagged proteins from cell lysates.

The target in test [4] is T2, GFP-tagged GASP1/GPRASP1 (GFP-GASP1) (human) (UniProt Q5JY77).
T2 sequence: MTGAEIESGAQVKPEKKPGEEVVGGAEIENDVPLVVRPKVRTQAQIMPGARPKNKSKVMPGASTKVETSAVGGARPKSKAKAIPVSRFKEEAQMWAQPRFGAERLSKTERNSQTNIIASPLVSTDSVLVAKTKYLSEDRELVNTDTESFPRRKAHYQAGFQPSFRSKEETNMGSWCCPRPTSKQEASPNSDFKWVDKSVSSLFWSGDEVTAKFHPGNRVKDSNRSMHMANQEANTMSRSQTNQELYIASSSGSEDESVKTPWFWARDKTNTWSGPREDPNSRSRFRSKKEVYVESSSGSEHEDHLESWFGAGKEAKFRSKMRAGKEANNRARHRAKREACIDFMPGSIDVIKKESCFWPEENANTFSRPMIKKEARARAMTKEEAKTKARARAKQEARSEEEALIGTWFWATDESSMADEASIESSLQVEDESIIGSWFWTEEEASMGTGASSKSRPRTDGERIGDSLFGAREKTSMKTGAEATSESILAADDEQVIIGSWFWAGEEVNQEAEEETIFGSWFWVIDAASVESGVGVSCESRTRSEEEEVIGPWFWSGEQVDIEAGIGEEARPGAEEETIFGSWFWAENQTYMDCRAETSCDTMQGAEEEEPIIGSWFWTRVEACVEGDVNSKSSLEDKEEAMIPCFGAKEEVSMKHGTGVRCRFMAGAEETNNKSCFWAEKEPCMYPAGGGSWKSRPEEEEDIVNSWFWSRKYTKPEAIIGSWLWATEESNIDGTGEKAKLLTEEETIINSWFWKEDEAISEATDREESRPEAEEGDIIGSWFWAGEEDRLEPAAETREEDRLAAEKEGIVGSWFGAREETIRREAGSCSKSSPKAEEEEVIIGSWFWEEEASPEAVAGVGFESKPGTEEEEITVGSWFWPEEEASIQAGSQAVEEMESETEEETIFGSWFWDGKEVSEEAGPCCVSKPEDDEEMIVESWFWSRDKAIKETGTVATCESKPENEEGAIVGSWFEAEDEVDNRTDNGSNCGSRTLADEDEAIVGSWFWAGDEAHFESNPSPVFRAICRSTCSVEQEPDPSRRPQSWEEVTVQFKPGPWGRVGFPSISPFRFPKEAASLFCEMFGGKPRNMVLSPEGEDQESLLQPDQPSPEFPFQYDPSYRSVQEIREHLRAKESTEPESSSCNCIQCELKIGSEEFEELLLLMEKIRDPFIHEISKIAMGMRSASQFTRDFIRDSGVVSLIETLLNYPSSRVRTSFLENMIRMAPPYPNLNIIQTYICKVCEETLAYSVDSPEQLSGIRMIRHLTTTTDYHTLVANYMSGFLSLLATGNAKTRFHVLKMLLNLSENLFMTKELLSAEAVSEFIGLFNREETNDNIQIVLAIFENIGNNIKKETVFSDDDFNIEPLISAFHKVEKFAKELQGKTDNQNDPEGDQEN
The description is as above.

Results are given in words; binding and its absence hold for the method and conditions named. In cells and extracts the contact can be indirect. Some entries that bind do so weakly or less than the wild type. Where a sequence is shown, tags or fusion partners need not be part of it.

B1: HA-tagged dysbindin (DYS-HA) (protein, UniProt Q91WZ8 1-352)
chain: MLETLRERLLSVQQDFTSGLKTLSDKSREAKVKGKPRTAPRLPKYSAGLELLSRYEDAWAALHRRAKECADAGELVDSEVVMLSAHWEKKRTSLNELQGQLQQLPALLQDLESLMASLAHLETSFEEVENHLLHLEDLCGQCELERHKQAQAQHLESYKKSKRKELEAFKAELDTEHTQKALEMEHTQQLKLKERQKFFEEAFQQDMEQYLSTGYLQIAERREPMGSMSSMEVNVDVLEQMDLMDISDQEALDVFLNSGGEDNIVMSPGVEMESNPNQNEMSLQIPSPSESASQPPASPSACTDLDTADAPLIQSDEEEVQVDTALVTLHTDRKSTPGVSDDSDQCDSTQDI
For the molecule B1, the binding result in test [1] was “binds”; in test [2] it was “no binding”; in test [3] it was “no binding”; in test [4], “binds”.
